For series [1], the system named is KRAS wild-type (Homo sapiens). Put plainly: binding assay. Conditions: Nap-dU at n (6) positions [4,9,13,19,26,27,28,30,39]; No binding; ELISA, SB18, 37 C; purified recombinant protein; protein details: His tag, Abcam ab96817; label: 5'-biotin; single-stranded DNA; letters built from the parent sequence and the stated change; variant of AD003. In general terms: In an ELISA, binding on a coated surface is turned into a signal by an enzyme label.

Chains of the proteins cited; added tags and fusions are not shown. Residues count along the entry.
UniProt P02787, 20-698: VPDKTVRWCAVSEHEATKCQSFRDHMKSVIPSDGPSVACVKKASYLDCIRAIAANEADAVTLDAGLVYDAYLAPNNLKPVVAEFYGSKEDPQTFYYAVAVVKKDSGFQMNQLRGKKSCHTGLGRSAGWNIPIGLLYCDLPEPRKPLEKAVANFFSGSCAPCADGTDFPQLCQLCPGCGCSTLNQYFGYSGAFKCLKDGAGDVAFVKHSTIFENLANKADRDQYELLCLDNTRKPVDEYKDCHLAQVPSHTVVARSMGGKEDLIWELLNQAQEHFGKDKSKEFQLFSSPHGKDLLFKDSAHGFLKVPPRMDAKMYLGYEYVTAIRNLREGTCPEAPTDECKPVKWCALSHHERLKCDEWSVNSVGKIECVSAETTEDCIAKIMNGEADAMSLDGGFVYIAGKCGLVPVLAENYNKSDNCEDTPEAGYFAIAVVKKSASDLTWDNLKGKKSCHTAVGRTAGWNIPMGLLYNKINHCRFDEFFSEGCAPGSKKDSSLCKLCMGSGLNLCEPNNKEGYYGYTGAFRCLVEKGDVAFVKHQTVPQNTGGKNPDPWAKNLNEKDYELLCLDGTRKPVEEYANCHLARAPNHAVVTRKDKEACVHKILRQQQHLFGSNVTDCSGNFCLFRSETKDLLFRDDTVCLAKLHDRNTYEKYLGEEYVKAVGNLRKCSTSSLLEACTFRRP

Series [2] concerns KRAS wild-type (Homo sapiens). The experiment in a line: BLI. The conditions noted are these: Nap-dU at n (6) positions [4,9,13,19,26,27,28,30,39]; No binding; SB18, 37 C; purified recombinant protein; protein details: His tag, Abcam ab96817; label: 5'-biotin; single-stranded DNA; letters built from the parent sequence and the stated change; variant of AD003.
The target in series [3] is transferrin (TF) (Homo sapiens) (UniProt P02787). Put plainly: binding assay. Conditions: No binding, ELISA, SB18, 37 C, purified recombinant protein, protein details: Abcam ab155698, single-stranded DNA, letters built from the parent sequence and the stated change.
Series [4] has as its target PD-L1 (PD-1/PD-L1 inhibitor screening assay kit) (UniProt Q9NZQ7). The experiment in a line: inhibition of the protein. The conditions noted are these: purified recombinant protein, protein details: BPS kit, single-stranded DNA, letters built from the parent sequence and the stated change, dose not given here.

For some of these results: A negative result means that nothing was seen under these conditions.

Take “GACTAGCATAAGTCCGGATGGCAGCTTTATGCCGACCAT [AD005]”: the binding result in series [1] and in series [2] was “no binding” throughout.

Consider “GAGTGACCGTCTGCCTGAAAGTCCGGATGGCAGCTTTACAGGCAGAACTAACGTACACAGCCACACCACCAGCC [TD005]”, for which the binding result in series [3] (Nap-dU at n (6) positions [22,28,35,36,37,49,54], label: …) was “no binding”.

On to “GAGTGACCGTCTGCCTGACAACAACGAGTGCGAACTGTACTACTTGATAGAGACCCTCAGCCACACCACCAGCC [AP013]”, for which the “functional effect of the aptamer” value in series [4] (Nap-dU at n (6) positions [Nap-dU at 29,36,38,41,44,45,48,57], label: 5'-biotin) is “active”.

For “GAGTGACCGTCTGCCTGGATATGCCTCTTCTGCAGTTACGGTGTGATCGCCCAATAGCAGCCACACCACCAGCC [TD009]”, the binding result in series [3] (Nap-dU at n (6) positions [Nap-dU at 20,22,26,28,29,31,36,37,42,44,47,55], label: 5'-biotin) is reported as “no binding”.

For the sequence “GAGTGACCGTCTGCCTGGGACTAGCATAAGTCCGGATGGCAGCTTTATGCCGACCATCAGCCACACCACCAGCC [TD001]”, the binding result in series [3] (Nap-dU at n (6) positions [22,27,31,37,44,45,46,48,57], label: 5'-biotin) is “no binding”.

In the case of “TCCCAGGTCGAGCTGTACGCGTGTGTGACCTTACTGATAATCACCTTGAATAGTGTAC [AP031]”, in series [4] (Nap-dU at n (6) positions [Nap-dU at 1,8,14,16,22,24,26,31,32,35,38,41,46,47,51,54,56]), the “functional effect of the aptamer” value is “active”.

Values taken from US20230220399.
